NP40-soluble protein abundance data for 12 targets are collected here from the supplement of paper PMC6411743.

By UniProt entry, the sequences of proteins in these tests, tags left out. Where a name states a change or a piece, a line headed by the entry shows the natural chain unless it says otherwise.
UniProt Q6PCB5: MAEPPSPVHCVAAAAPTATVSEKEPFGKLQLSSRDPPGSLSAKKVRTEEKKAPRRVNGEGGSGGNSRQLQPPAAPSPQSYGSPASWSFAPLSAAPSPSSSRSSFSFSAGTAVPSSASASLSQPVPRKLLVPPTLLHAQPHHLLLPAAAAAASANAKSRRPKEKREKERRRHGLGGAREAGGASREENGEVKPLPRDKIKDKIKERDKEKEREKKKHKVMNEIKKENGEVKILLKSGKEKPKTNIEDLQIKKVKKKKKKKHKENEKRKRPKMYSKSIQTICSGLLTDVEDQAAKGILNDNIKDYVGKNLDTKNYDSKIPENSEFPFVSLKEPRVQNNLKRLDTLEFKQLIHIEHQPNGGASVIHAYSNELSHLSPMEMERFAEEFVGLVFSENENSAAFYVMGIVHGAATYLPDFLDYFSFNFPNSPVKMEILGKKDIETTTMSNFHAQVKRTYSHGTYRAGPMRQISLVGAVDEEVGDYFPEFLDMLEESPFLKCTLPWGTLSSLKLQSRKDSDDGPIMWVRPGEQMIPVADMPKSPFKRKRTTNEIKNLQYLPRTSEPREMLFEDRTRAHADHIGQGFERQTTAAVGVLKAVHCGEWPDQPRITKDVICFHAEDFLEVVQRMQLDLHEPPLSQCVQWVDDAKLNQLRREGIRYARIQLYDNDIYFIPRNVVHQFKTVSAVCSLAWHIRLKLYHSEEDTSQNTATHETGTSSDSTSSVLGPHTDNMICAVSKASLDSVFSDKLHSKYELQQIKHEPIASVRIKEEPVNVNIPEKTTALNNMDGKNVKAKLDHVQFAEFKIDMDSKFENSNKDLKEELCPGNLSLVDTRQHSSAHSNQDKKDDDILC
UniProt Q8WUH1: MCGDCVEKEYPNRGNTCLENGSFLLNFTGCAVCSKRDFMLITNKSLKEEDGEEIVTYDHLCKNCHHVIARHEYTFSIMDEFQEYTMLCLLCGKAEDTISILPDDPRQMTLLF
UniProt Q9Y4K1: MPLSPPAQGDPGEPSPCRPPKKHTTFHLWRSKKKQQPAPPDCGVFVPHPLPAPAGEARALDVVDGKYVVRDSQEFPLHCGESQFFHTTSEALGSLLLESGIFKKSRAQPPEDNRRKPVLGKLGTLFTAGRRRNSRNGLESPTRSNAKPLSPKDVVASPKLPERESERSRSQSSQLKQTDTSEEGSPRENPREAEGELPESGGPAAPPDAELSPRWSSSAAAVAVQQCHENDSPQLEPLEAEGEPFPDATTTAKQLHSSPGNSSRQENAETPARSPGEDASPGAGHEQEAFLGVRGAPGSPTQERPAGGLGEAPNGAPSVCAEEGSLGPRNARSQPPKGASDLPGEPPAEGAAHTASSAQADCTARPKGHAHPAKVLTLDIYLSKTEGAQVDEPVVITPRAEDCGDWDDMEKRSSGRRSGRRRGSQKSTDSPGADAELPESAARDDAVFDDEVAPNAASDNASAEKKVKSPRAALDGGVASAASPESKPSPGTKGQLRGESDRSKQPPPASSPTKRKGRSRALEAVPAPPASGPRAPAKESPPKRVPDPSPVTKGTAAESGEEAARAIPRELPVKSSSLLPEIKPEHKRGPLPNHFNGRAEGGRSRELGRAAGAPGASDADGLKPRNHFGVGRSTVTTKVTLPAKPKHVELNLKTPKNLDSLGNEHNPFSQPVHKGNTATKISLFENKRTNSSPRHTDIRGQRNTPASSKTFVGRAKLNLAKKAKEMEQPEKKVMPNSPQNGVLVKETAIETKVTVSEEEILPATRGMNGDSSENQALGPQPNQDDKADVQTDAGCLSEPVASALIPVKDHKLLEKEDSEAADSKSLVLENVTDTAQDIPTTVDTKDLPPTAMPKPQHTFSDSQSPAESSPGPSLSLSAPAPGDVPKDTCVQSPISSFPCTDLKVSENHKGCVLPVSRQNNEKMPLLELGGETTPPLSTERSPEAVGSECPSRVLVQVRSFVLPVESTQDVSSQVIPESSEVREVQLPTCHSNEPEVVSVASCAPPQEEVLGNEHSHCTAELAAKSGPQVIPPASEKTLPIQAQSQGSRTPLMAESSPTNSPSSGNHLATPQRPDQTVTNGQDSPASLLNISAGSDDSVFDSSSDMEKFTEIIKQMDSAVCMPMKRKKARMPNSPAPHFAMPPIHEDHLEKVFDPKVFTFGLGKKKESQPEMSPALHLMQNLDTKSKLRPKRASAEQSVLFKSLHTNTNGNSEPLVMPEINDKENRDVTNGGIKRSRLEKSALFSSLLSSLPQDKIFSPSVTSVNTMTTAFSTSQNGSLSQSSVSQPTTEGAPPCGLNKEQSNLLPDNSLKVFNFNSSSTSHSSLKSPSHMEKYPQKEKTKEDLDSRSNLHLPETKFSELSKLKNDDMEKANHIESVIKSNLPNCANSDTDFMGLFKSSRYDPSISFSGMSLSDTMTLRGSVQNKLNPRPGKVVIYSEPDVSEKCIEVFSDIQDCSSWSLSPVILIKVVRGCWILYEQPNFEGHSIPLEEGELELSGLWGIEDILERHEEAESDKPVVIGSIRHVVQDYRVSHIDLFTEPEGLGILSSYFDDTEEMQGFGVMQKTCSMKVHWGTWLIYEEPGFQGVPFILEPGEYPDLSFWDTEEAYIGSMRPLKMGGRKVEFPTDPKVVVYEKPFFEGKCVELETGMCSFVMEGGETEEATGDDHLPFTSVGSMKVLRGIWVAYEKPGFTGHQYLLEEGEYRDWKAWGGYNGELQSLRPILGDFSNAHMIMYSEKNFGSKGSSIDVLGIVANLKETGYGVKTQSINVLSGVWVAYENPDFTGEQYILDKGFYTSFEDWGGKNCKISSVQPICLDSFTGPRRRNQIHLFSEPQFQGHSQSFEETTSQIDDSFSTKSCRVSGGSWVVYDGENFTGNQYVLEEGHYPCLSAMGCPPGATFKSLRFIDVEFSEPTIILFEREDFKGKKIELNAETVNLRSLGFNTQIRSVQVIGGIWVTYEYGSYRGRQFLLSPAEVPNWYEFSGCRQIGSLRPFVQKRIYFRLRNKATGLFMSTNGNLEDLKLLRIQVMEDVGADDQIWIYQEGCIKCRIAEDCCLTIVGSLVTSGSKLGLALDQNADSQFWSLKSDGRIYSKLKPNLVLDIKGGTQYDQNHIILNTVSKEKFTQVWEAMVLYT
UniProt A1L0T0: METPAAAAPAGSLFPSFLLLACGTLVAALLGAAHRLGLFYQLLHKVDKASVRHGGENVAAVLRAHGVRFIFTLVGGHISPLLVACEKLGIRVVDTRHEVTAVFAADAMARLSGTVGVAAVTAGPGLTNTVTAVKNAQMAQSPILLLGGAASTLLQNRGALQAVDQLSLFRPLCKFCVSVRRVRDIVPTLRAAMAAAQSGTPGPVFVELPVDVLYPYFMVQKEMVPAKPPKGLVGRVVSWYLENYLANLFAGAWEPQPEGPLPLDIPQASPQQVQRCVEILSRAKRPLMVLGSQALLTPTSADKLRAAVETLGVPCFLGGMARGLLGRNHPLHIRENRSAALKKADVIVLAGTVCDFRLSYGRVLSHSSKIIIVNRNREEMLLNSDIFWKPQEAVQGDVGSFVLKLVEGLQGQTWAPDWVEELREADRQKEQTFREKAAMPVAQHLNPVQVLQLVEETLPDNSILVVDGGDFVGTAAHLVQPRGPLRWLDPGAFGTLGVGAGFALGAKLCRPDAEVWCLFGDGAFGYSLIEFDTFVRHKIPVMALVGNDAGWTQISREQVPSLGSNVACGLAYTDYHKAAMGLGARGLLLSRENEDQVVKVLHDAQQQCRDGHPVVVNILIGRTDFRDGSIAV
UniProt Q12851: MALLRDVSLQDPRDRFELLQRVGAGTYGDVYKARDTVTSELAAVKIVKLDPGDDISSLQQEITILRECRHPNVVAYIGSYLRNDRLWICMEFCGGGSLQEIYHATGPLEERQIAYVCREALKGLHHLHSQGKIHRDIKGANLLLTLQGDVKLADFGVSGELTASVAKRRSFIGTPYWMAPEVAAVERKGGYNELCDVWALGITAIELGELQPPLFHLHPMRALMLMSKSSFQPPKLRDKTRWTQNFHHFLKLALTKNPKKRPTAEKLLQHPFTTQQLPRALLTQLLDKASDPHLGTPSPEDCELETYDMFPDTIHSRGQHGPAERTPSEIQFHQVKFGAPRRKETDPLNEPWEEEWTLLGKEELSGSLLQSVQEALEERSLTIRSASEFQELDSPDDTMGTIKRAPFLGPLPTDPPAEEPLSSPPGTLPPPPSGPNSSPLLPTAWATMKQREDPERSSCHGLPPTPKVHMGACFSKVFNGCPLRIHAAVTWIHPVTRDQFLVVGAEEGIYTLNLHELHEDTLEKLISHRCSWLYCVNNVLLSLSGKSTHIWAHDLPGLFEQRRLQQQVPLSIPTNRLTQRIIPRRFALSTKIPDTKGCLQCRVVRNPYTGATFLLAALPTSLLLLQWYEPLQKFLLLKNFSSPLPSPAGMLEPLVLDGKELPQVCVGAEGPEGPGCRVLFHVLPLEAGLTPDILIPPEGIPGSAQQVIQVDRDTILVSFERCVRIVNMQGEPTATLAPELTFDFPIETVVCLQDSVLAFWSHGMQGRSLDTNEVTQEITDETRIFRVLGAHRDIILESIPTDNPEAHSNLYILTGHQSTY
UniProt O75386: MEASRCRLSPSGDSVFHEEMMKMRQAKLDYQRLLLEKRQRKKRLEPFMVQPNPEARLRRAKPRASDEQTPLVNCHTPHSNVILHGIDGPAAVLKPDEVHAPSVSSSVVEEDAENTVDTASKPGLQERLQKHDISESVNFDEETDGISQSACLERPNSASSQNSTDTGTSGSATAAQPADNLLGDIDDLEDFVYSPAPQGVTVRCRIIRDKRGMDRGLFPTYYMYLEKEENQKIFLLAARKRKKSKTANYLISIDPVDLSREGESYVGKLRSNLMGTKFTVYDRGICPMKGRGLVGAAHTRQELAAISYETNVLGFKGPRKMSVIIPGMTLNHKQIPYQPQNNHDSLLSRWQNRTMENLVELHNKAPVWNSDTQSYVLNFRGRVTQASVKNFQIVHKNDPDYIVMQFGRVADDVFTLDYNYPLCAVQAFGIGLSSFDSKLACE
UniProt Q8IWT0: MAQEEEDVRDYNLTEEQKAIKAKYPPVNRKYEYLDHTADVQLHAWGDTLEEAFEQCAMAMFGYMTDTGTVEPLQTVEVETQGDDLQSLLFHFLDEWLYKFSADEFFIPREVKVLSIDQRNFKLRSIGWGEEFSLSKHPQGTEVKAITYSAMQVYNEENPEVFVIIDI
UniProt Q13454: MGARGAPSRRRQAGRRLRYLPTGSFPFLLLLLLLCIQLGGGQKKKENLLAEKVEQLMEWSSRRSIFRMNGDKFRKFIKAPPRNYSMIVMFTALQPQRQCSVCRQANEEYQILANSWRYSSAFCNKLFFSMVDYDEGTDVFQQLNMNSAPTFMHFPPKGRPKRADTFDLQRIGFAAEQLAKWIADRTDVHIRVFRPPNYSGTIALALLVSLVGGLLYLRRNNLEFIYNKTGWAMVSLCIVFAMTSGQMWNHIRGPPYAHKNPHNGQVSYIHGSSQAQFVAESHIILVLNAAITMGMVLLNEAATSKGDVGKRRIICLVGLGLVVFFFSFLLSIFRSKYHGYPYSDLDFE
UniProt Q6UXV4: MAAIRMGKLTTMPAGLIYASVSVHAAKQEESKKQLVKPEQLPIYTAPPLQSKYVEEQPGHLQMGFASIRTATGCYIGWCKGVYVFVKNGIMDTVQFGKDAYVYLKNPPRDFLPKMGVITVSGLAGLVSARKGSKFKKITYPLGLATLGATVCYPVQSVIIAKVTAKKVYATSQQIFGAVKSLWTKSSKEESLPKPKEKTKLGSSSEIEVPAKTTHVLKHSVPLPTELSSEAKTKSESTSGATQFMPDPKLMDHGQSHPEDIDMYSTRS
UniProt P15289: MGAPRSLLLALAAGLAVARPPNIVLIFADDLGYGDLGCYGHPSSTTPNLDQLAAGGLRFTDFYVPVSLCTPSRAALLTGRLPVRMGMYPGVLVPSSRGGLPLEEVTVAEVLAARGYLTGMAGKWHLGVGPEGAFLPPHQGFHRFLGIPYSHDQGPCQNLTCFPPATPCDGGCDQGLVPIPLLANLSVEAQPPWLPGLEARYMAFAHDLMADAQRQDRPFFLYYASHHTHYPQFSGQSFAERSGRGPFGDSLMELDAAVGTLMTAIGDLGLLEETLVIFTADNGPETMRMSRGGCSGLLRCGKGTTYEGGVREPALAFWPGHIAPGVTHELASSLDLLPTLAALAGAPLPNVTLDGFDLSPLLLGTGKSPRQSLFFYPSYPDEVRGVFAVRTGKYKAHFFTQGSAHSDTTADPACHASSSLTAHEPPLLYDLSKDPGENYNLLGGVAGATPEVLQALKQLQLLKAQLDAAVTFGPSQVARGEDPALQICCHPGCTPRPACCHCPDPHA

Compound in this assay: Nc1nc2c(ncn2[C@@H]2O[C@H](COP(=O)(O)OP(=O)(O)OP(=O)(O)O)[C@@H](O)[C@H]2O)c(=O)[nH]1 [guanosine triphosphate]
The assay is described as follows: NP40-soluble protein abundance relative to vehicle (solubility fold change) (ratio); higher = more soluble protein in presence of GTP. The gist of the method: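 Eight concentrations, 0.1 to 10 mM, were tested on Jurkat crude lysate for 10 min at room temperature and then 3 min at 37 °C, in three independent experiments. The lysate was solubilised with 0.8% NP40 and benzonase, ultracentrifuged, and the supernatant TMT-labelled for LC-MS/MS. Each value is the fold change against the detergent-processed vehicle in its own replicate, from vsn-normalised intensities.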

± gives the standard deviation of the averaged measurements. Some of the results follow.

As to “A0A0R4J2F3|Q9Y2S0 and related entries (UniProt Q9Y2S0)”, the NP40-soluble protein abundance is 1.01 ± 0.075 (concentration: 0.1mM); 0.925 ± 0.056 (concentration: 0.5mM); 1.11 ± 0.2 (concentration: 1mM); 1.16 ± 0.14 (concentration: 2mM); 1.2 ± 0.17 (concentration: 4mM); 1.17 ± 0.12 (concentration: 6mM). Also, the NP40-soluble protein abundance (concentration: 8mM) was found to be 1.15 ± 0.21 and the NP40-soluble protein abundance (concentration: 10mM) was 1.24 ± 0.28.

In the case of A0A087X239|Q6PCB5 (UniProt Q6PCB5), the NP40-soluble protein abundance was found to be 1.05 ± 0.03 (concentration: 0.1mM); 1.13 ± 0.053 (concentration: 0.5mM); 1.19 ± 0.058 (concentration: 1mM); 1.24 ± 0.076 (concentration: 2mM); 1.25 ± 0.047 (concentration: 4mM); 1.24 ± 0.082 (concentration: 6mM). In addition, the NP40-soluble protein abundance was 1.32 ± 0.15 (concentration: 8mM) and 1.29 ± 0.1 (concentration: 10mM).

Turning to “A0A0C4DGJ7|Q8WUH1 and related entries (UniProt Q8WUH1)”, the NP40-soluble protein abundance was 1 ± 0.032 (concentration: 0.1mM); 1.06 ± 0.043 (concentration: 0.5mM); 1.03 ± 0.043 (concentration: 1mM); 0.98 ± 0.048 (concentration: 2mM); 0.961 ± 0.057 (concentration: 4mM); 0.988 ± 0.021 (concentration: 6mM). Besides, the NP40-soluble protein abundance reads like this: (concentration: 8mM) 1 ± 0.052; (concentration: 10mM) 0.952 ± 0.035.

As to A0A0J9YWL0|Q9Y4K1 (UniProt Q9Y4K1), the NP40-soluble protein abundance (concentration: 0.1mM) was determined as 0.999 ± 0.017; the NP40-soluble protein abundance (concentration: 0.5mM) was 1.03 ± 0.034; the NP40-soluble protein abundance (concentration: 1mM) is 1.01 ± 0.025; the NP40-soluble protein abundance (concentration: 2mM) was 1.02 ± 0.038; the NP40-soluble protein abundance (concentration: 4mM) was determined as 1.04 ± 0.029; the NP40-soluble protein abundance (concentration: 6mM) amounted to 1.063 ± 0.0069. Also, the NP40-soluble protein abundance is, setting by setting: (concentration: 8mM) 1.07 ± 0.046; (concentration: 10mM) 1.07 ± 0.024.

Turning to UniProt A1L0T0 and related entries, the NP40-soluble protein abundance (concentration: 0.1mM) came to 1.05 ± 0.022; the NP40-soluble protein abundance (concentration: 0.5mM) is 1.04 ± 0.014; the NP40-soluble protein abundance (concentration: 1mM) was 0.949 ± 0.036; the NP40-soluble protein abundance (concentration: 2mM) stood at 0.986 ± 0.043; the NP40-soluble protein abundance (concentration: 4mM) was 0.943 ± 0.04; the NP40-soluble protein abundance (concentration: 6mM) was found to be 0.924 ± 0.065. The NP40-soluble protein abundance reads like this: (concentration: 8mM) 0.927 ± 0.025; (concentration: 10mM) 0.915 ± 0.049.

Turning to “A0A0A6YYA7|Q12851 and related entries (UniProt Q12851)”, the NP40-soluble protein abundance is, setting by setting: (concentration: 0.1mM) 0.975 ± 0.11; (concentration: 0.5mM) 0.944 ± 0.11; (concentration: 1mM) 0.851 ± 0.12; (concentration: 2mM) 0.895 ± 0.08; (concentration: 4mM) 0.888 ± 0.13; (concentration: 6mM) 0.859 ± 0.11. The NP40-soluble protein abundance is 0.828 ± 0.1 (concentration: 8mM) and 0.857 ± 0.061 (concentration: 10mM).

On to “A0A087WXF0|P51608 and related entries (UniProt P51608)”, for which the NP40-soluble protein abundance is 1 ± 0.035 (concentration: 0.1mM); 1.03 ± 0.099 (concentration: 0.5mM); 1.02 ± 0.069 (concentration: 1mM); 1.07 ± 0.11 (concentration: 2mM); 1.1 ± 0.095 (concentration: 4mM); 1.12 ± 0.12 (concentration: 6mM). Besides, the NP40-soluble protein abundance came out at 1.14 ± 0.067 (concentration: 8mM) and 1.18 ± 0.053 (concentration: 10mM).

In the case of “A0A087WYY4|F5H7B9 and related entries (UniProt O75386)”, the NP40-soluble protein abundance reads like this: (concentration: 0.1mM) 0.965 ± 0.054; (concentration: 0.5mM) 0.993 ± 0.05; (concentration: 1mM) 0.983 ± 0.015; (concentration: 2mM) 0.9168 ± 0.0075; (concentration: 4mM) 1 ± 0.024; (concentration: 6mM) 0.995 ± 0.054. Besides, the NP40-soluble protein abundance was 0.972 ± 0.035 (concentration: 8mM) and 1.04 ± 0.11 (concentration: 10mM).

Take “A0A087X0V4|A8K0B5 and related entries (UniProt Q8IWT0)”: the NP40-soluble protein abundance reads like this: (concentration: 0.1mM) 1.16 ± 0.12; (concentration: 0.5mM) 1.03 ± 0.028; (concentration: 1mM) 1.15 ± 0.16; (concentration: 2mM) 0.984 ± 0.073; (concentration: 4mM) 1.05 ± 0.1; (concentration: 6mM) 1.04 ± 0.18. Also, the NP40-soluble protein abundance came to 0.985 ± 0.061 (concentration: 8mM) and 0.982 ± 0.1 (concentration: 10mM).

Consider “A0A0A0MTC2|D6RA37 and related entries (UniProt Q13454)”, for which the NP40-soluble protein abundance is, setting by setting: (concentration: 0.1mM) 1.07 ± 0.063; (concentration: 0.5mM) 1.06 ± 0.13; (concentration: 1mM) 0.996 ± 0.081; (concentration: 2mM) 0.95 ± 0.026; (concentration: 4mM) 0.964 ± 0.032; (concentration: 6mM) 1.05 ± 0.19. Besides, the NP40-soluble protein abundance is, setting by setting: (concentration: 8mM) 0.93 ± 0.091; (concentration: 10mM) 0.981 ± 0.14.

For the target “A0A087WYF7|Q6UXV4 and related entries (UniProt Q6UXV4)”, the NP40-soluble protein abundance worked out at 0.979 ± 0.16 (concentration: 0.1mM); 0.938 ± 0.1 (concentration: 0.5mM); 0.917 ± 0.083 (concentration: 1mM); 0.95 ± 0.021 (concentration: 2mM); 0.975 ± 0.053 (concentration: 4mM); 0.928 ± 0.045 (concentration: 6mM). For the same target, the NP40-soluble protein abundance is, setting by setting: (concentration: 8mM) 0.94 ± 0.1; (concentration: 10mM) 0.922 ± 0.07.

As to “A0A0C4DFZ2|P15289 and related entries (UniProt P15289)”, the NP40-soluble protein abundance runs as follows: (concentration: 0.1mM) 1.04 ± 0.011; (concentration: 0.5mM) 1.01 ± 0.045; (concentration: 1mM) 0.955 ± 0.061; (concentration: 2mM) 0.973 ± 0.05; (concentration: 4mM) 0.937 ± 0.06; (concentration: 6mM) 0.943 ± 0.051. Also, the NP40-soluble protein abundance was found to be 0.949 ± 0.049 (concentration: 8mM) and 0.941 ± 0.05 (concentration: 10mM).
